The results in this text go back to paper PMC12504162.

Protein sequences, listed by entry. Tags and fused reporters are not part of them. Lines headed by an entry give the natural chain unless they say otherwise; changes in a name come on top.
UniProt P0C0S5: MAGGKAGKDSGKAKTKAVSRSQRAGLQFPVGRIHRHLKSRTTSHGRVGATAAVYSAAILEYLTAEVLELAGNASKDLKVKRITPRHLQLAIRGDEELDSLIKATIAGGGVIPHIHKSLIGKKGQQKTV
UniProt Q13547: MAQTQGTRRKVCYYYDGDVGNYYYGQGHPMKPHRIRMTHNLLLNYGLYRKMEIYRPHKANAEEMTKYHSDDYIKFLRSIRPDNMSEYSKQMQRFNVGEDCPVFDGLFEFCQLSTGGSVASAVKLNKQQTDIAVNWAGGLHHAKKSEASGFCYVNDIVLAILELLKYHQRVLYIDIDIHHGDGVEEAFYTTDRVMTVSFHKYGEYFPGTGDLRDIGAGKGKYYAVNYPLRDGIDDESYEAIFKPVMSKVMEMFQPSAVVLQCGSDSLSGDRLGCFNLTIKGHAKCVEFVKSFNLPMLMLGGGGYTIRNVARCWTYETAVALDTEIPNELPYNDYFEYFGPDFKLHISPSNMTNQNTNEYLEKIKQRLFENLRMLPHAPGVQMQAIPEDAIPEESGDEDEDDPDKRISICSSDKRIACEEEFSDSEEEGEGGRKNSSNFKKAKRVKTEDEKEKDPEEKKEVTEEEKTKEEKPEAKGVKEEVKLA

The test has as its target histone variant H2AFZ (human (endogenous in PDLSCs)) (UniProt P0C0S5). Briefly: co-IP; lysates of PDLSCs after 3 days of osteogenic induction, in co-IP buffer; incubated with HDAC1 antibody or H2AFZ antibody overnight at 4 °C, magnetic beads 2 h at 4 °C, three washes, Western blot. On the technique in general: In western blotting, separated proteins are transferred to a membrane and probed.

No constants are given. Whether binding was seen depends on the method and setting. Binding seen in cells or lysates may run through a third protein. Some results given as binding are weak or reduced against the parent protein; the word gives no strength.

In the case of “HDAC1 (from UniProt Q13547 1-482) (enzyme)”, the binding result is reported as “binds”.
